Data as given in paper PMC6726633, “Different Grp94 components interact transiently with the myocilin olfactomedin domain in vitro to enhance or retard its amyloid aggregation” (Scientific Reports, 2019).
Where a chain is given by its changes, count along the chain named. These are yes or no findings as the source states them, for the method shown. Some entries that bind do so weakly or less than the wild type.

Chains of the proteins cited; added tags and fusions are not shown. Residues count along the entry.
UniProt P14625, residues 22-803: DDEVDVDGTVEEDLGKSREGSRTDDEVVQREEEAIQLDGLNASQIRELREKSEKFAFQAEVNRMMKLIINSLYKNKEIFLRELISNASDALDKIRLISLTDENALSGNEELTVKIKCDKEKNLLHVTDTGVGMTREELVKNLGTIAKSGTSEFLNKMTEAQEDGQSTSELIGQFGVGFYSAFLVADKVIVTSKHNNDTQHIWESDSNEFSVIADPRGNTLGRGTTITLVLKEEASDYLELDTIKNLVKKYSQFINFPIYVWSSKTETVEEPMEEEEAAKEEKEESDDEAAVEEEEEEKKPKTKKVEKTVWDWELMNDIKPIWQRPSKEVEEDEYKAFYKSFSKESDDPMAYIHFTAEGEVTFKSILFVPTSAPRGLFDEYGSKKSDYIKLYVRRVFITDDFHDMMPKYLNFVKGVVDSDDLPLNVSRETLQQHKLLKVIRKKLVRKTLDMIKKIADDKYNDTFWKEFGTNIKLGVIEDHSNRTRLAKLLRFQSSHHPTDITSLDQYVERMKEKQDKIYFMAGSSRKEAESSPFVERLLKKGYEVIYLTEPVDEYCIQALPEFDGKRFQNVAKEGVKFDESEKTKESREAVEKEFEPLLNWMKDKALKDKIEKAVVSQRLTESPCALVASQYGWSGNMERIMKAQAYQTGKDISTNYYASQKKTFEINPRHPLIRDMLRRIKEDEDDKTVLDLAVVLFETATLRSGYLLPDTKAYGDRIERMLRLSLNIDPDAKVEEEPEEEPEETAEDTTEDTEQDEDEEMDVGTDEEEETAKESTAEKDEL

Columns and labels:
[1] = target: T1, Dansylated myocilin olfactomedin domain (human) (UniProt Q99972); test: cross-linking; Grp94FL:OLF 1:20, OLF 100 μM (dansylated or label-free), PBS, pre-incubated 30 min at 42 °C, 50 μM BS3(d0/d4) 1 h at 42 °C; SDS-PAGE (Coomassie, dansyl fluorescence), in-gel digestion and LC-MS; both purified
T1 sequence (chain, dansyl (~2 dansyl modifications per OLFd by MS), sites not stated): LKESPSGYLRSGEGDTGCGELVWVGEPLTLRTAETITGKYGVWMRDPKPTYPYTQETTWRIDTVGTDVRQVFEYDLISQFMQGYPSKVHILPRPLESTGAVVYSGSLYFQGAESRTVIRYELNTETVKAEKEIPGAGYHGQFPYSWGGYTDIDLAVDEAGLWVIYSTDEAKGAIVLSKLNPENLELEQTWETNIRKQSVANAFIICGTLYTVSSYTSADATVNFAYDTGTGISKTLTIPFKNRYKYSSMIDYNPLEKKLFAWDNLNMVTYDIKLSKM

[2] = target: T2, Dansylated myocilin olfactomedin domain with the glaucoma-associated D380A variant (human) (UniProt Q99972); test: fluorescence polarisation; 0.01 μM OLFd D380A with 0-185.6 μM Grp94 (monomer) in PBS, 25 °C, excitation 340 nm, emission 492 nm, background-corrected with Grp94FL-only samples; both purified
T2 sequence (chain, dansyl, sites not stated): T1 sequence (chain, dansyl (~2 dansyl modifications per OLFd by MS), sites not stated) with D153A

- binding [1]: binds weakly
Substance: Full-length Grp94 (glucose regulated protein 94), residues 22-803 (from UniProt P14625 22-803)
- binding [2]: no binding (tested: 93 μM Grp94 dimer: 0.01 μM OLF)
